These are yes or no findings as the source states them, for the method shown. Binding seen in cells or lysates may run through a third protein. Some binding calls cover weakened binding; strength is not graded here.

Protein sequences, listed by entry. Tags and fused reporters are not part of them. Lines headed by an entry give the natural chain unless they say otherwise; changes in a name come on top.
UniProt D3YXK2: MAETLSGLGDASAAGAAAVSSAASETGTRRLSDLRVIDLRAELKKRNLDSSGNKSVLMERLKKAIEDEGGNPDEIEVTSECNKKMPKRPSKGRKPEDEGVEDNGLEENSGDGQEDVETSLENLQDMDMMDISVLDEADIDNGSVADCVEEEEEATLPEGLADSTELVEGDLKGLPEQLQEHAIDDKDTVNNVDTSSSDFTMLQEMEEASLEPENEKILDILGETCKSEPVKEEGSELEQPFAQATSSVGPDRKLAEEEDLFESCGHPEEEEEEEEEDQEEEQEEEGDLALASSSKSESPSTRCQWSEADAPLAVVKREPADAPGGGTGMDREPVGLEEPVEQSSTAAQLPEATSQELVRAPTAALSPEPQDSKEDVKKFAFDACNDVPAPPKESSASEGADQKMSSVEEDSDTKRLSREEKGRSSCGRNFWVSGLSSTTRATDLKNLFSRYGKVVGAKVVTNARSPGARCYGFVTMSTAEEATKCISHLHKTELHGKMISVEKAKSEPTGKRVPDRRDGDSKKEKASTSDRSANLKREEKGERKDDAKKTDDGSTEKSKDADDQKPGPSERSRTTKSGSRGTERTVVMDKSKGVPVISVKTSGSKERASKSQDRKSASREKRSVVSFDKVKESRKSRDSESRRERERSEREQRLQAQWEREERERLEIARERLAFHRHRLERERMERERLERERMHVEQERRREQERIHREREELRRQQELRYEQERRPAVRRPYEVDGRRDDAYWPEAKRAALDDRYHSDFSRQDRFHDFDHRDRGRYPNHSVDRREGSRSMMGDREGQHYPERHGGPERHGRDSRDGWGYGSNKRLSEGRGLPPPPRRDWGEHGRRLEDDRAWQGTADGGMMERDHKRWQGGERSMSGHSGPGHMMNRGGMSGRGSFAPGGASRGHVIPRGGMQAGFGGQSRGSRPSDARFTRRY

The target of assay [1] is T1, Drosha (mouse (endogenous in DG NSCs)) (UniProt Q5HZJ0).
T1 sequence: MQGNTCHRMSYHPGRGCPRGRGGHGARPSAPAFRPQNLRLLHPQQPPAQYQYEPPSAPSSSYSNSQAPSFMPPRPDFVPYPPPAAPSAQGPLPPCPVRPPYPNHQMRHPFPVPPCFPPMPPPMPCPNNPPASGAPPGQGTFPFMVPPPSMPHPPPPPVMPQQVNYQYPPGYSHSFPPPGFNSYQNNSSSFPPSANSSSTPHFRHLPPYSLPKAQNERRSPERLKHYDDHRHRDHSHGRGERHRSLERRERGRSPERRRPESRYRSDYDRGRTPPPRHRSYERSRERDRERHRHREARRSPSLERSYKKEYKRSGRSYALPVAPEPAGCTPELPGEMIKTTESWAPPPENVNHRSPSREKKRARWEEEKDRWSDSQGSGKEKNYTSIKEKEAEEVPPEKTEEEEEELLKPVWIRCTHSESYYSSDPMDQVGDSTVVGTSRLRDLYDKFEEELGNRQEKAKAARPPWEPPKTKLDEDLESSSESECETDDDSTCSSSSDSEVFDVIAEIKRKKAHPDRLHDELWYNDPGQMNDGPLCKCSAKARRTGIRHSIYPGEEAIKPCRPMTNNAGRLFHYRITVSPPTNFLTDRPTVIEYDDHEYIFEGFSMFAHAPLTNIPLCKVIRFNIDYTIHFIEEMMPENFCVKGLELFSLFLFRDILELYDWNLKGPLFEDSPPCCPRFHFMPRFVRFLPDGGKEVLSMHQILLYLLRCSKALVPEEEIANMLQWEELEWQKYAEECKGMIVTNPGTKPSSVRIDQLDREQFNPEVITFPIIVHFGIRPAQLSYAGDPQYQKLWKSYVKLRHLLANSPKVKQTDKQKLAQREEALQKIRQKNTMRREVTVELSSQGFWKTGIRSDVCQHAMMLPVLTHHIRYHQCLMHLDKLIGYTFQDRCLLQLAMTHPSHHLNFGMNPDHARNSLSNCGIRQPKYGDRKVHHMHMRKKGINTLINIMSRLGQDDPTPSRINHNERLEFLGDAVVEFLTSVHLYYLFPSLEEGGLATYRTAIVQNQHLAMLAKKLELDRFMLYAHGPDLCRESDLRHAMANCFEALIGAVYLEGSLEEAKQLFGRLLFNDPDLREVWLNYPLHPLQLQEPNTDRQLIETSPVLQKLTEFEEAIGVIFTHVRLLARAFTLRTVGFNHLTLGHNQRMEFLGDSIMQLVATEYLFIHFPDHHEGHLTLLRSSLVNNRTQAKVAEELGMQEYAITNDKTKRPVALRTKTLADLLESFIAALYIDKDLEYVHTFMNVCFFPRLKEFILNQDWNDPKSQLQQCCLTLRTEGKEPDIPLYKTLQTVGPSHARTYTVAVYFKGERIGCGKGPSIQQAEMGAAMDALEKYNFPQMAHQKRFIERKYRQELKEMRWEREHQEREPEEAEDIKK
As to the kind of experiment: co-IP; endogenous proteins; 1 mg DG NSC lysate (20 mM HEPES-KOH pH 7.9, 100 mM KCl, 0.5% Triton) treated with or without RNase, anti-Drosha or anti-SAFB antibody overnight at 4°C, magnetic beads, immunoblot; control without antibody. A general note: Immunoblotting shows a protein as a band on a membrane.

Assay [2] has as its target scaffold attachment factor B (SAFB) (mouse (endogenous in DG NSCs)) (UniProt D3YXK2). The description is as above.
In assay [3] the target is T2, Drosha (endogenous, N2A cells) (mouse (endogenous in N2A)) (UniProt Q5HZJ0).
T2 sequence: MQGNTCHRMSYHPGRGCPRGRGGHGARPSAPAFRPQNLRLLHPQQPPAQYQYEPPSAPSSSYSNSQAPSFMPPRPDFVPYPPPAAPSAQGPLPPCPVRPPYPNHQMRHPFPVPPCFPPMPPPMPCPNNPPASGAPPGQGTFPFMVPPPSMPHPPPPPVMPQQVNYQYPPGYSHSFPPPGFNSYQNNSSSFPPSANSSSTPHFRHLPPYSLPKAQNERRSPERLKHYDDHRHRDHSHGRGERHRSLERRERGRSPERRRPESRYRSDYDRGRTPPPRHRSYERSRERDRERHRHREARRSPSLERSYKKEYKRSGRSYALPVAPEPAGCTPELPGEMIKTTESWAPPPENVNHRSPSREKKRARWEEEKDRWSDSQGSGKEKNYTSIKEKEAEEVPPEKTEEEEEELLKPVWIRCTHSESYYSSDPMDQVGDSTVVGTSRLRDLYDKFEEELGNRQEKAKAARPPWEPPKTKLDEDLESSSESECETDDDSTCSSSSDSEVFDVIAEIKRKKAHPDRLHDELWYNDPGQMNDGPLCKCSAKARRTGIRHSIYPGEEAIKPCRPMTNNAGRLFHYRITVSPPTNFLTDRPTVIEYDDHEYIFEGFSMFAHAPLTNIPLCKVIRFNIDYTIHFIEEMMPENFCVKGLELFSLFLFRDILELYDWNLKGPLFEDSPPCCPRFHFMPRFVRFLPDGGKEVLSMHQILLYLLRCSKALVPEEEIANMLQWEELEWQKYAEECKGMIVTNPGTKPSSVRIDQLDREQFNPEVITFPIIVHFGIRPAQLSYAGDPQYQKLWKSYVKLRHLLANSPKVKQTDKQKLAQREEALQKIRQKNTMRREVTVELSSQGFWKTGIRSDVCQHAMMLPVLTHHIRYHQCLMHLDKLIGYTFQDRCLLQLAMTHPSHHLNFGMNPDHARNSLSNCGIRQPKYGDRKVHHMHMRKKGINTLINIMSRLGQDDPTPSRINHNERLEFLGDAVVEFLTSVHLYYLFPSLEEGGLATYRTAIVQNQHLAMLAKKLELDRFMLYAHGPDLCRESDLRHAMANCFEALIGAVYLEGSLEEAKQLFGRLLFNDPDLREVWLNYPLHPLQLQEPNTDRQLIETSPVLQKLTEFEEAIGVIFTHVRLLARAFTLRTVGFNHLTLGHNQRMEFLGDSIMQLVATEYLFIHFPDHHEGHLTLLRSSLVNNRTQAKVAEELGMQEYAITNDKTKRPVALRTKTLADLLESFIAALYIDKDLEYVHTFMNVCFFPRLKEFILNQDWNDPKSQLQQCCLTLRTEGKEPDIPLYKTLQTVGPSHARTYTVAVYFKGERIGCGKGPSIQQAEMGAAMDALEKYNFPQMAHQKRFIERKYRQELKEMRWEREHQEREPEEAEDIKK
As to the kind of experiment: co-IP; N2A cells with or without esiRNA Safb knock-down; full lysate treated with RNase A and DNase I, IP of endogenous Drosha, immunoblot for SAFB and Drosha in the complexes used for in vitro processing.

For PKC-α (from UniProt P20444 1-672), the binding entry in assay [1] and in assay [2] was “no binding” throughout.

For the molecule “SAFB (endogenous, N2A cells) (from UniProt D3YXK2 1-937)”, the binding result in assay [3] was “binds”.

With “scaffold attachment factor B (SAFB) (from UniProt D3YXK2 1-937)”, the binding entry in assay [1] is reported as “binds”.

B1: Drosha (enzyme, UniProt Q5HZJ0 1-1373)
chain: MQGNTCHRMSYHPGRGCPRGRGGHGARPSAPAFRPQNLRLLHPQQPPAQYQYEPPSAPSSSYSNSQAPSFMPPRPDFVPYPPPAAPSAQGPLPPCPVRPPYPNHQMRHPFPVPPCFPPMPPPMPCPNNPPASGAPPGQGTFPFMVPPPSMPHPPPPPVMPQQVNYQYPPGYSHSFPPPGFNSYQNNSSSFPPSANSSSTPHFRHLPPYSLPKAQNERRSPERLKHYDDHRHRDHSHGRGERHRSLERRERGRSPERRRPESRYRSDYDRGRTPPPRHRSYERSRERDRERHRHREARRSPSLERSYKKEYKRSGRSYALPVAPEPAGCTPELPGEMIKTTESWAPPPENVNHRSPSREKKRARWEEEKDRWSDSQGSGKEKNYTSIKEKEAEEVPPEKTEEEEEELLKPVWIRCTHSESYYSSDPMDQVGDSTVVGTSRLRDLYDKFEEELGNRQEKAKAARPPWEPPKTKLDEDLESSSESECETDDDSTCSSSSDSEVFDVIAEIKRKKAHPDRLHDELWYNDPGQMNDGPLCKCSAKARRTGIRHSIYPGEEAIKPCRPMTNNAGRLFHYRITVSPPTNFLTDRPTVIEYDDHEYIFEGFSMFAHAPLTNIPLCKVIRFNIDYTIHFIEEMMPENFCVKGLELFSLFLFRDILELYDWNLKGPLFEDSPPCCPRFHFMPRFVRFLPDGGKEVLSMHQILLYLLRCSKALVPEEEIANMLQWEELEWQKYAEECKGMIVTNPGTKPSSVRIDQLDREQFNPEVITFPIIVHFGIRPAQLSYAGDPQYQKLWKSYVKLRHLLANSPKVKQTDKQKLAQREEALQKIRQKNTMRREVTVELSSQGFWKTGIRSDVCQHAMMLPVLTHHIRYHQCLMHLDKLIGYTFQDRCLLQLAMTHPSHHLNFGMNPDHARNSLSNCGIRQPKYGDRKVHHMHMRKKGINTLINIMSRLGQDDPTPSRINHNERLEFLGDAVVEFLTSVHLYYLFPSLEEGGLATYRTAIVQNQHLAMLAKKLELDRFMLYAHGPDLCRESDLRHAMANCFEALIGAVYLEGSLEEAKQLFGRLLFNDPDLREVWLNYPLHPLQLQEPNTDRQLIETSPVLQKLTEFEEAIGVIFTHVRLLARAFTLRTVGFNHLTLGHNQRMEFLGDSIMQLVATEYLFIHFPDHHEGHLTLLRSSLVNNRTQAKVAEELGMQEYAITNDKTKRPVALRTKTLADLLESFIAALYIDKDLEYVHTFMNVCFFPRLKEFILNQDWNDPKSQLQQCCLTLRTEGKEPDIPLYKTLQTVGPSHARTYTVAVYFKGERIGCGKGPSIQQAEMGAAMDALEKYNFPQMAHQKRFIERKYRQELKEMRWEREHQEREPEEAEDIKK
With B1, in assay [2], the binding result is “binds”.

These data come from article PMC11149935, “SAFB regulates hippocampal stem cell fate by targeting Drosha to destabilize Nfib mRNA” (eLife, 2024).
